Structures are written as SMILES. Where a name gives a salt, the structure may show the parent alone. The list shows a part of the results. Plates or batches differ in their baseline, so values are only roughly comparable.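 The cells are HEK293 lines stably expressing B-domain-deleted factor VIII fused to Gaussia luciferase, either wild type or a misfolding-prone missense mutant. Each score is mean luminescence from triplicate wells minus the DMSO mean, divided by the DMSO standard deviation; a score of 2 or more counts as a hit, and low scores may reflect lower secretion or poorer cell viability.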

In this experiment the test system is HEK293 WT BDD-FVIII-Gluc. In words: secreted FVIII-Gluc luciferase Z-score vs DMSO control; higher = more FVIII-Gluc secretion. The note with it: 5 µM; 24 h.
Turning to `CC(C)N(CCNC(=O)CN1CCCC1=O)C(C)C` [Pramiracetam], the “secreted FVIII-Gluc luciferase Z-score” value was inactive: -2.29.
On to `CN(C)C(=O)Oc1ccc[n+](C)c1` [Pyridostigmine Bromide (Mestinon)], for which the “secreted FVIII-Gluc luciferase Z-score” value is inactive: -4.54.
As for `C=C1C[C@@H]2[C@H](CC[C@]3(C)C(=O)CC[C@@H]23)[C@@]2(C)C=CC(=O)C=C12` [Exemestane], the “secreted FVIII-Gluc luciferase Z-score” value was inactive: 0.166.
In the case of `CCC(COC(=O)c1cc(OC)c(OC)c(OC)c1)(c1ccccc1)N(C)C` (stereo unspecified) [Trimebutine] it was inactive: 0.844.
In the case of `Cc1c(N)nc(C(CC(N)=O)NCC(N)C(N)=O)nc1C(=O)NC(C(=O)NC(C)C(O)C(C)C(=O)NC(C(=O)NCCc1nc(-c2nc(C(=O)NCCC[S+](C)C)cs2)cs1)C(C)O)C(O[C@@H]1O[C@@H](CO)[C@@H](O)[C@H](O)[C@@H]1O[C@H]1O[C@H](CO)[C@@H](O)[C@H](OC(N)=O)[C@@H]1O)c1cnc[nH]1` (stereo partly specified) [Bleomycin sulfate], the “secreted FVIII-Gluc luciferase Z-score” value is inactive: -3.58.
For the molecule `CN1C(=O)CCS(=O)(=O)C1c1ccc(Cl)cc1` (stereo unspecified) [Chlormezanone (Trancopal)], the “secreted FVIII-Gluc luciferase Z-score” value was inactive: -0.916.
To `O=S(=O)(F)Cc1ccccc1` [PMSF (Phenylmethylsulfonyl Fluoride)] belongs inactive: -1.74; to `O=C(O)c1nn(Cc2ccc(Cl)cc2Cl)c2ccccc12` [Lonidamine], inactive: -2.9; to `COc1ccc(C(CN(C)C)C2(O)CCCCC2)cc1` (stereo unspecified) [Venlafaxine], inactive: -0.645.
In the case of `C#C[C@]1(O)C=C[C@H]2[C@@H]3CCC4=CC(=O)CC[C@@H]4[C@H]3CC[C@@]21CC` [Gestodene] it was inactive: -0.324.
Take `O=C(O[C@H]1C[N+]2(CCCOc3ccccc3)CCC1CC2)C(O)(c1cccs1)c1cccs1` [Aclidinium Bromide]: the “secreted FVIII-Gluc luciferase Z-score” value was inactive: -0.976.
As to `O=P1(NCCCl)OCCCN1CCCl` (stereo unspecified) [Ifosfamide], the “secreted FVIII-Gluc luciferase Z-score” value is inactive: -6.24.
With `CC(C)NCC(O)c1ccccc1Cl` (stereo unspecified) [Clorprenaline HCL], the “secreted FVIII-Gluc luciferase Z-score” value is active: 3.8.
To `CC(C)c1c(CN(C)C(C)Cc2ccccc2)n(C)n(-c2ccccc2)c1=O` (stereo unspecified) [Famprofazone] belongs inactive: -0.581.
For `COc1cc2c(cc1OC)[C@@]13CCN4CC5=CCO[C@H]6CC(=O)N2[C@H]1[C@H]6[C@H]5C[C@H]43` [Brucine], the “secreted FVIII-Gluc luciferase Z-score” value is inactive: 0.382.
Take `Cc1cccc(Cc2c[nH]cn2)c1C` [Detomidine HCl]: the “secreted FVIII-Gluc luciferase Z-score” value is inactive: -0.622.
As for `COC(=O)C1=CCCN(C)C1` [Arecoline], the “secreted FVIII-Gluc luciferase Z-score” value was inactive: 1.63.
On to `CN(C)[C@@H]1C(=O)C(C(N)=O)=C(O)[C@@]2(O)C(=O)C3=C(O)c4c(O)cccc4[C@@](C)(O)[C@H]3[C@H](O)[C@@H]12` [Oxytetracycline dihydrate], for which the “secreted FVIII-Gluc luciferase Z-score” value was inactive: -0.451.
As for `CC[C@@H](C(N)=O)N1CCCC1=O` [Levetiracetam], the “secreted FVIII-Gluc luciferase Z-score” value was inactive: -3.49.
As to `O=C(O[C@H]1C[C@H]2CC[C@@H](C1)[N+]21CCCC1)C(O)(c1ccccc1)c1ccccc1` [Trospium chloride (Sanctura)], the “secreted FVIII-Gluc luciferase Z-score” value is inactive: -0.532.
In the case of `CN1c2ccccc2C(NCCCCCCC(=O)O)c2ccc(Cl)cc2S1(=O)=O` (stereo unspecified) [Tianeptine sodium] it was inactive: -3.89.
To `CCCCCCCCCCCCCCCC[n+]1ccccc1` [Cetylpyridinium Chloride] belongs inactive: -4.55; to `NCCc1c[nH]c2ccc(O)cc12` [Serotonin HCl], inactive: 1.01.
Regarding `N.N.[Cl][Pt][Cl]` [Cisplatin], the “secreted FVIII-Gluc luciferase Z-score” value was inactive: 0.994.
For `C[N+](C)(C)CCCCCCCCCC[N+](C)(C)C` [Decamethonium bromide], the “secreted FVIII-Gluc luciferase Z-score” value was inactive: -1.38.
Take `CCC1(c2ccc(N)cc2)CCC(=O)NC1=O` (stereo unspecified) [Aminoglutethimide (Cytadren)]: the “secreted FVIII-Gluc luciferase Z-score” value is inactive: 1.77.

The values are drawn from the supplement of paper PMC12024529.
